{
  "source": "patent US20240092829A1",
  "about": "“PEPTIDE HAVING PROTECTIVE ACTIVITY AGAINST CELL DAMAGE CAUSED BY PARTICULATE MATTER, AND USES FOR SAME” (CAREGEN CO., LTD., priority 2020, published 2024)",
  "system": "AHR",
  "assay": "Nuclear translocation test of AHR (western blot of cell nucleus extracts)",
  "assay_type": "cell-based",
  "details": "HaCaT human keratinocytes; peptide pretreatment 1 hour at 20, 100, 200 μM; then 50 μg/cm^2 urban particulate matter 1 hour; FIG. 2",
  "note": "At least one peptide structure holds a part that was inferred or is arguable (an end, a ring closure or a residue). Peptide text beside a SMILES is read from it.",
  "data": [
    {"smiles": "CSCC[C@H](NC(=O)[C@H](Cc1ccc(O)cc1)NC(=O)[C@@H](N)Cc1c[nH]c2ccccc12)C(=O)O", "note": "[SEQ ID NO: 1, Trp Tyr Met] (H-Trp-Tyr-Met-OH; N-terminus and C-terminus assumed)", "values": [
      {"measurement": "level of the nuclear translocation of AHR increased by the treatment of particulate matter", "result": "significantly reduced"}
    ]}
  ]
}
